PubChem BioAssay AID1508597 | Cure First, 2020

- Aim: 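Knock-downs altering ovarian cancer cell survival with or without PARP inhibitor rucaparib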 (primary screen)
- Cells: human ovarian carcinoma lines grown from tumours: OCI-P5x (papillary serous) and OCI-C5x (clear cell)
- Knock-down reagent: siRNA pool against human genes, 1.25 pmol siRNA per well
- Timing: 72 h or 96 h, depending on the cell culture
- Conditions: rucaparib 20 µM (about IC30) or vehicle, present until read-out
- Measurement: 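ATP luminescence measured at 72 or 96 h according to the culture, then normalised and expressed as percent viability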
- Reading the numbers: viability, normalised: higher = more viable cells remaining
- Call rule: 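a well counts as a hit if its normalised viability is under 80 percent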
- Calls: active = viability under 80%; inactive = viability 80% or more
The whole screen tested about 2,100 reagents; below is a part drawn at random. 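Calls flag viability under 80% in either arm, not effects specific to rucaparib; the reference for percent is not stated.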 A reagent listed more than once was tested more than once; the source does not tell the runs apart. Not stated in the record: the 100% reference.

The opening 2 records as a preview:
no.	target	rucaparib or vehicle	cell line	technical replicate	viability, normalised (%)	Call
1	ERCC6 (ERCC excision repair 6, chromatin remodeling factor)	Rucaparib	OCI-C5x (clear cell)	1	34.7	active
2	ERCC6 (ERCC excision repair 6, chromatin remodeling factor)	Rucaparib	OCI-C5x (clear cell)	2	37.7	active

Main list, repeating the preview:
no.	target	rucaparib or vehicle	cell line	technical replicate	viability, normalised (%)	Call
1	ERCC6 (ERCC excision repair 6, chromatin remodeling factor)	Rucaparib	OCI-C5x (clear cell)	1	34.7	active
2	ERCC6 (ERCC excision repair 6, chromatin remodeling factor)	Rucaparib	OCI-C5x (clear cell)	2	37.7	active
3	ERCC6 (ERCC excision repair 6, chromatin remodeling factor)	Rucaparib	OCI-C5x (clear cell)	3	40.2	active
4	ERCC6 (ERCC excision repair 6, chromatin remodeling factor)	Rucaparib	OCI-P5x (serous)	1	68.1	active
5	ERCC6 (ERCC excision repair 6, chromatin remodeling factor)	Rucaparib	OCI-P5x (serous)	2	64.8	active
6	ERCC6 (ERCC excision repair 6, chromatin remodeling factor)	Rucaparib	OCI-P5x (serous)	3	64.9	active
7	ERCC6 (ERCC excision repair 6, chromatin remodeling factor)	Vehicle	OCI-C5x (clear cell)	1	54.7	active
8	ERCC6 (ERCC excision repair 6, chromatin remodeling factor)	Vehicle	OCI-C5x (clear cell)	2	53.7	active
9	ERCC6 (ERCC excision repair 6, chromatin remodeling factor)	Vehicle	OCI-C5x (clear cell)	3	52.2	active
10	ERCC6 (ERCC excision repair 6, chromatin remodeling factor)	Vehicle	OCI-P5x (serous)	1	69	active
11	ERCC6 (ERCC excision repair 6, chromatin remodeling factor)	Vehicle	OCI-P5x (serous)	2	71.2	active
12	ERCC6 (ERCC excision repair 6, chromatin remodeling factor)	Vehicle	OCI-P5x (serous)	3	67.2	active
13	ERCC3 (ERCC excision repair 3, TFIIH core complex helicase subunit)	Rucaparib	OCI-C5x (clear cell)	1	49.3	active
14	ERCC3 (ERCC excision repair 3, TFIIH core complex helicase subunit)	Rucaparib	OCI-C5x (clear cell)	1	40.6	active
15	ERCC3 (ERCC excision repair 3, TFIIH core complex helicase subunit)	Rucaparib	OCI-C5x (clear cell)	2	39.4	active
16	ERCC3 (ERCC excision repair 3, TFIIH core complex helicase subunit)	Rucaparib	OCI-C5x (clear cell)	2	44.2	active
17	ERCC3 (ERCC excision repair 3, TFIIH core complex helicase subunit)	Rucaparib	OCI-C5x (clear cell)	3	51.5	active
18	ERCC3 (ERCC excision repair 3, TFIIH core complex helicase subunit)	Rucaparib	OCI-C5x (clear cell)	3	43	active
19	ERCC3 (ERCC excision repair 3, TFIIH core complex helicase subunit)	Rucaparib	OCI-P5x (serous)	1	73.6	active
20	ERCC3 (ERCC excision repair 3, TFIIH core complex helicase subunit)	Rucaparib	OCI-P5x (serous)	1	103	inactive
21	ERCC3 (ERCC excision repair 3, TFIIH core complex helicase subunit)	Rucaparib	OCI-P5x (serous)	2	72.5	active
22	ERCC3 (ERCC excision repair 3, TFIIH core complex helicase subunit)	Rucaparib	OCI-P5x (serous)	2	116	inactive
23	ERCC3 (ERCC excision repair 3, TFIIH core complex helicase subunit)	Rucaparib	OCI-P5x (serous)	3	77.9	active
24	ERCC3 (ERCC excision repair 3, TFIIH core complex helicase subunit)	Rucaparib	OCI-P5x (serous)	3	87.3	inactive
25	ERCC3 (ERCC excision repair 3, TFIIH core complex helicase subunit)	Vehicle	OCI-C5x (clear cell)	1	32.4	active
26	ERCC3 (ERCC excision repair 3, TFIIH core complex helicase subunit)	Vehicle	OCI-C5x (clear cell)	1	56.3	active
27	ERCC3 (ERCC excision repair 3, TFIIH core complex helicase subunit)	Vehicle	OCI-C5x (clear cell)	2	67.4	active
28	ERCC3 (ERCC excision repair 3, TFIIH core complex helicase subunit)	Vehicle	OCI-C5x (clear cell)	2	32.4	active
29	ERCC3 (ERCC excision repair 3, TFIIH core complex helicase subunit)	Vehicle	OCI-C5x (clear cell)	3	62.3	active
30	ERCC3 (ERCC excision repair 3, TFIIH core complex helicase subunit)	Vehicle	OCI-C5x (clear cell)	3	38.6	active
31	ERCC3 (ERCC excision repair 3, TFIIH core complex helicase subunit)	Vehicle	OCI-P5x (serous)	1	76.3	active
32	ERCC3 (ERCC excision repair 3, TFIIH core complex helicase subunit)	Vehicle	OCI-P5x (serous)	1	65	active
33	ERCC3 (ERCC excision repair 3, TFIIH core complex helicase subunit)	Vehicle	OCI-P5x (serous)	2	80.5	inactive
34	ERCC3 (ERCC excision repair 3, TFIIH core complex helicase subunit)	Vehicle	OCI-P5x (serous)	2	72.1	active
35	ERCC3 (ERCC excision repair 3, TFIIH core complex helicase subunit)	Vehicle	OCI-P5x (serous)	3	89.5	inactive
36	ERCC3 (ERCC excision repair 3, TFIIH core complex helicase subunit)	Vehicle	OCI-P5x (serous)	3	85.2	inactive
37	MAPK7 (mitogen-activated protein kinase 7)	Rucaparib	OCI-C5x (clear cell)	1	65.7	active
38	MAPK7 (mitogen-activated protein kinase 7)	Rucaparib	OCI-C5x (clear cell)	2	61.5	active
39	MAPK7 (mitogen-activated protein kinase 7)	Rucaparib	OCI-C5x (clear cell)	3	72	active
40	MAPK7 (mitogen-activated protein kinase 7)	Rucaparib	OCI-P5x (serous)	1	118	inactive
41	MAPK7 (mitogen-activated protein kinase 7)	Rucaparib	OCI-P5x (serous)	2	111	inactive
42	MAPK7 (mitogen-activated protein kinase 7)	Rucaparib	OCI-P5x (serous)	3	97.1	inactive
43	MAPK7 (mitogen-activated protein kinase 7)	Vehicle	OCI-C5x (clear cell)	1	76.4	active
44	MAPK7 (mitogen-activated protein kinase 7)	Vehicle	OCI-C5x (clear cell)	2	64	active
45	MAPK7 (mitogen-activated protein kinase 7)	Vehicle	OCI-C5x (clear cell)	3	78.1	active
46	MAPK7 (mitogen-activated protein kinase 7)	Vehicle	OCI-P5x (serous)	1	91.3	inactive
47	MAPK7 (mitogen-activated protein kinase 7)	Vehicle	OCI-P5x (serous)	2	98.4	inactive
48	MAPK7 (mitogen-activated protein kinase 7)	Vehicle	OCI-P5x (serous)	3	92.9	inactive
49	EDF1 (endothelial differentiation related factor 1)	Rucaparib	OCI-C5x (clear cell)	1	35.2	active
50	EDF1 (endothelial differentiation related factor 1)	Rucaparib	OCI-C5x (clear cell)	2	37.4	active
51	EDF1 (endothelial differentiation related factor 1)	Rucaparib	OCI-C5x (clear cell)	3	34	active
52	EDF1 (endothelial differentiation related factor 1)	Rucaparib	OCI-P5x (serous)	1	54	active
53	EDF1 (endothelial differentiation related factor 1)	Rucaparib	OCI-P5x (serous)	2	48.6	active
54	EDF1 (endothelial differentiation related factor 1)	Rucaparib	OCI-P5x (serous)	3	66.4	active
55	EDF1 (endothelial differentiation related factor 1)	Vehicle	OCI-C5x (clear cell)	1	41.2	active
56	EDF1 (endothelial differentiation related factor 1)	Vehicle	OCI-C5x (clear cell)	2	55.6	active
57	EDF1 (endothelial differentiation related factor 1)	Vehicle	OCI-C5x (clear cell)	3	12.3	active
58	EDF1 (endothelial differentiation related factor 1)	Vehicle	OCI-P5x (serous)	1	64.6	active
59	EDF1 (endothelial differentiation related factor 1)	Vehicle	OCI-P5x (serous)	2	63.9	active
60	EDF1 (endothelial differentiation related factor 1)	Vehicle	OCI-P5x (serous)	3	96.2	inactive
